This test in a line: qHTS Assay for Lipid Storage Modulators in Drosophila S3 Cells.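 On cell number change: cells counted by Cell Tracker Red CMTPX staining in the red channel.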 The following applies: BODIPY lipid droplet fluorescence, 18-24 h; for cell number change: measured here: cell count max response, cells fed with added oleic acid. A digest of the protocol:
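Drosophila S3 cells loaded with oleic acid (400 uM, as added) and compounds at several concentrations; lipid droplets imaged by 488-nm laser-scanning cytometry, 500–530 nm intensity and object ratio to cell channel. Percent activity normalized to 20 uM Triacsin C.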
Background: Quantitative high-throughput screening tests each substance at several concentrations.

The mark [1] stands for this setting: measured here: cell number channel AC50, cells fed with added oleic acid.
[2] abbreviates: measured here: lipid fluorescence (Fed channel) AC50, cells fed with added oleic acid.

SMILES strings stand for the structures. The list shows a part of the results. The main result of the screen is listed elsewhere. These columns were measured beside it and carry no call. Compounds called inactive in the main read-out are mostly missing here. The note in brackets gives the kind of curve behind each potency; many fits are weak.

As usually defined, the AC50 is the concentration giving half of the maximal activity seen.

Take `Cc1csc(-c2cnn(-c3ccccc3)c2NC(=O)c2cccc(F)c2)n1`: the cell number change amounted to 91.2%. The AC50 under setting [1] is 5.8 µM [rising, partial curve]. For the same compound, under setting [2], the AC50 is 0.82 µM [rising, single point].
With `CC(C)[C@@H](C(=O)NCC1CCCO1)N1C(=O)N2CCc3c([nH]c4ccccc34)[C@@]2(C)C1=O` (some centres not stated), the cell number change was 25.2%. Also, the AC50 under setting [2] was 29.1 µM [rising, single point].
On to `Nc1ccc(-c2c3ccccc3nc3ccccc23)cc1`, for which the cell number change was 13.6%. For the same compound, the AC50 under setting [2] is 1.84 µM [rising, partial curve].
In the case of `O=C(Cn1c(/C=C/c2ccccc2)nc2ccccc21)Nc1ccc(F)cc1`, the cell number change is 0.29%. Besides, under setting [2], the AC50 is 0.206 µM [rising, full curve, poor fit].
For `O=C(O)[C@@H]1CCCN1C(=O)c1ccccc1N1C(=O)[C@@H]2Cc3c([nH]c4ccccc34)C(c3cccc(Cl)c3)N2C1=O` (some centres not stated), the cell number change is -1.69%.
Take `Cc1nnc(SCC(=O)NC(C)c2ccccc2)[nH]c1=O` (configuration not stated): the cell number change was -1.29%. Also, the AC50 under setting [2] is 4.61 µM [falling, partial curve].
On to `CCN(c1ccccc1)S(=O)(=O)c1ccc(Cl)c(C(=O)NCCc2ccc(OC)cc2)c1`, for which the cell number change was -64%. Also, the AC50 under setting [1] is 6.51 µM [falling, partial curve, poor fit].
As for `Cc1ccc(Oc2ncnc(N)c2[N+](=O)[O-])cc1C`, the cell number change is -16.9%. Further, under setting [2], the AC50 was 2.31 µM [falling, full curve].
Take `c1ccc(CN2CCN(c3nc(NCc4ccco4)c4ccccc4n3)CC2)cc1`: the cell number change is -88.7%.
On to `CCc1ccc(-c2cc(C)no2)cc1S(=O)(=O)N1CCN(c2cc(C)ccc2C)CC1`, for which the cell number change stood at 142%. In addition, the AC50 under setting [2] was 29.1 µM [falling, single point].
Regarding `Cc1ccc2c(c1)-c1ccccc1S(=O)(=O)N2`, the cell number change stood at 35.4%. The AC50 under setting [1] was 20.6 µM [rising, single point]. Moreover, the AC50 under setting [2] was 29.1 µM [rising, single point].
Turning to `CCOC(=O)N1CCN(C(=O)CCc2nc3sc4c(c3c(=O)[nH]2)CCCC4)CC1`, the cell number change is -19.8%.
For `O=C(Nc1ncccn1)c1ccc(C(F)(F)F)cc1`, the cell number change is 12.1%. The AC50 under setting [2] is 0.651 µM [falling, full curve, poor fit].
As for `COc1cc2c(cc1OC)C1(Nc3c-2c(Cc2ccccc2)nn3-c2ccccc2)C(=O)Nc2ccccc21` (configuration not stated), the cell number change was found to be 0.462%. Under setting [2], the AC50 was 6.51 µM [rising, single point].
Take `Clc1ccc(-n2cccc2/C=N/n2cnnc2)cc1`: the cell number change was 28.2%. Further, the AC50 under setting [2] is 0.0651 µM [falling, full curve, poor fit].
Regarding `Nc1nc(SCC(=O)c2ccc(Br)s2)n[nH]1`, the cell number change was found to be 6.84%. Moreover, under setting [1], the AC50 is 0.411 µM [rising, full curve]. In addition, the AC50 under setting [2] was 0.82 µM [rising, partial curve].

(Values after PubChem BioAssay AID2685 (National Center for Advancing Translational Sciences (NCATS), 2010).)
